PubChem BioAssay AID504795 | Drosophila RNAi Screening Center – 2011
The reagents shown are a selection, not the whole library. 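Every listed dsRNA shows some phenotype; how reagents were selected for listing is not stated.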 A plus sign joins genes that one reagent is predicted to hit.

Assay: 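Fly genes whose loss alters neurite growth or neural cell form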 (primary screen)
Cell system: primary Drosophila neurons and glia
Reagents: long dsRNA against Drosophila genes, 250 ng dsRNA per well
Duration: one week
Measurement: 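GFP-labelled neurons and glia imaged live by automated microscope one week after 250 ng dsRNA per well; morphology scored by eye as descriptive phenotype terms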

Gene,amplicon,"phenotype seen, replicate 1"
erm,DRSC00700,too many neurite branches
CG34338,DRSC17535,sheet-like cell extensions
Mpcp2,DRSC11226,sheet-like cell extensions
eag,DRSC20328,axon bundles split apart
CG42299 + CG42300,DRSC19815,too many neurite branches
CG34300,DRSC13977,axon bundles split apart
Task7,DRSC16477,axon bundles split apart
vls,DRSC02101,too many neurite branches
Act5C,DRSC17723,sheet-like cell extensions
CG42540,DRSC08593,too many neurite branches
Sec61alpha,DRSC03256,cell fragments present
PIG-F,DRSC11069,too many neurite branches
Sfp53D,DRSC05625,axon bundles split apart
mAChR-A,DRSC04702,abnormal cell clusters
l(2)05287,DRSC02152,axon bundles split apart
Kebab,DRSC00827,beaded; swollen axons
CG15423,DRSC00437,axon bundles split apart
PyK,DRSC16806,too many neurite branches
CG7059,DRSC16187,sheet-like cell extensions
CG14615,DRSC20627,axon bundles split apart
brv1,DRSC11076,sheet-like cell extensions
CG42703,DRSC03973,reduced axon outgrowth
Tom40,DRSC18796,sheet-like cell extensions
dpr6,DRSC09005,reduced axon outgrowth
dpr6,DRSC10162,reduced axon outgrowth
Vps60,DRSC10610,axon bundles split apart
pdm2,DRSC02497,abnormal cell clusters
Os-C,DRSC16778,too many neurite branches
ND-B15,DRSC06199,sheet-like cell extensions
hbt,DRSC02503,too many neurite branches
rost,DRSC03603,reduced axon outgrowth
Cpr62Bc,DRSC08545,axon bundles split apart
CG10725,DRSC09788,too many neurite branches
CG15773,DRSC18079,abnormal cell clusters
CG17490,DRSC03797,beaded; swollen axons
CG10347,DRSC19352,abnormal cell clusters
pgc,DRSC04099,fewer cells
Ugt37B1,DRSC03225,reduced axon outgrowth
CG12825,DRSC06174,too many neurite branches
arm,DRSC18738,axon bundles split apart
Arp3,DRSC09669,axon bundles split apart
Dcr-2,DRSC06992,too many neurite branches
RpL12,DRSC04344,too many neurite branches
CG13044,DRSC09925,axon bundles split apart

In a second layout: 3 of the entries above.
Gene	amplicon	phenotype seen, replicate 1
CG15423	DRSC00437	axon bundles split apart
PyK	DRSC16806	too many neurite branches
CG7059	DRSC16187	sheet-like cell extensions
